The nature of the data set: Fluorescence ratio (mTFP/Venus) response of purified lactate sensor to lactate in vitro. The data set is classed as binding. The protocol:
Protein Purification. Plasmid constructs were transformed into E. coli BL21 (DE3). A single colony was inoculated in 100 ml of LB medium with […] ampicillin (without IPTG) and shaken in the dark for 2-3 days. Cells were collected by centrifugation at 5000 rpm (4° C.) for 10 min and disrupted by sonication (Hielscher Ultrasound Technology) in 5 mL of Tris-HCl buffer pH 8.0. A cell-free extract was obtained by centrifugation at 10,000 rpm (4° C.) for 1 hour and filtering of the supernatant (0.45 μm). Proteins were purified using a Nickel resin (His Bin® from Novagen) as recommended by the manufacturer. Eluted proteins were quantified using the Biuret method and stored at −20° C. in 20% glycerol.
Fluorescence Measurements.

Here are results for one substance from patent US10466233B2, “Genetically encoded probe for quantification of lactate and methods for quantifying metabolic rates and lactate transport” (CENTRO DE ESTUDIOS CIENTIFICOS DE VALDIVIA, priority 2012, dated 2019).

Turning to “Variant 7: Most responsive FRET lactate sensor: mTFP, full length L1dR from E. coli, no linkers, Venus; SEQ ID NO 7”, the “lower limit of lactate quantification” value turned out to be 1 µM and the “upper limit of lactate quantification” value came to 10 mM. The sensitivity in vitro (similar to the most sensitive enzyme-based commercial kit) was roughly 50 pmol.
